Test results from patent publication US20230000774A1, “METHODS AND COMPOSITIONS PRODUCED THEREBY” (Albumedix Limited, priority 2019, published 2023).
For some of these results: The name of at least one read-out is uncertain. For some of these results: At least one structure is not confirmed: it was looked up by name or label, or the drawing left a doubt.

How the values were obtained:
[1] = HPLC analysis of AP1903 recovery pre and post filtration through 1.2 μm filter; assay type: physicochemical; settings: formulation dissolved in D5W
[2] = obtained from DrugBank; total charge at pH 7.4; cited from earlier work
[3] = cited from earlier work

Compound | AP1903 recovery, Pre-filtration [1] [%] | AP1903 recovery, Post 1.2 filtration ([1]; 1.2 μm filter) [%] | Physiological Charge [2] | BCS Classification [3]
CC[C@H](C(=O)N1CCCC[C@H]1C(=O)O[C@H](CCc1ccc(OC)c(OC)c1)c1cccc(OCC(=O)NCCNC(=O)COc2cccc([C@@H](CCc3ccc(OC)c(OC)c3)OC(=O)[C@@H]3CCCCN3C(=O)[C@@H](CC)c3cc(OC)c(OC)c(OC)c3)c2)c1)c1cc(OC)c(OC)c(OC)c1 [AP1903, 1,2-Ethanediylbis[imino(2-oxo-2,1-ethanediyl)oxy-3,1-phenylene(1R)-3-(3,4-dimethoxyphen-yl)-1,1-propanediyl] (2S,2'S)bis{1-[(2S)-2-(3,4,5-trimethoxyphenyl)butanoyl]-2-piperidine-carboxylate}] | 100 | 84 |  | 
CO[C@H]1C[C@@H]2CC[C@@H](C)[C@@](O)(O2)C(=O)C(=O)N2CCCC[C@H]2C(=O)O[C@H]([C@H](C)C[C@@H]2CC[C@@H](O)[C@H](OC)C2)CC(=O)[C@H](C)/C=C(\C)[C@@H](O)[C@@H](OC)C(=O)[C@H](C)C[C@H](C)/C=C/C=C/C=C/1C [Rapamycin (sirolimus), Rapamycin] |  |  | 0 | Class II
